In PubChem BioAssay AID2685 (National Center for Advancing Translational Sciences (NCATS), 2010) one finds cell number change and AC50 data, which are given here for 59 compounds.

This test in a line: qHTS Assay for Lipid Storage Modulators in Drosophila S3 Cells.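 On cell number change: cells counted by Cell Tracker Red CMTPX staining in the red channel.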 The note with it: BODIPY lipid droplet fluorescence, 18-24 h; for cell number change: measured here: cell count max response, cells fed with added oleic acid. The gist of the method: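 Drosophila S3 cells got compounds at several concentrations plus oleic acid (400 uM solution). Laser-scanning cytometry with 488 nm excitation read lipid droplets at 500-530 nm and cells at 575-640 nm. Percent activity was relative to 20 uM Triacsin C.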

[1] abbreviates: measured here: lipid fluorescence (Fed channel) AC50, cells fed with added oleic acid.
Where [2] appears, read: measured here: cell number channel AC50, cells fed with added oleic acid.

The other results are listed elsewhere or left out. Further columns of the screen follow, without active or inactive calls. Most of these compounds were active or inconclusive in the main read-out, so they are no random draw. The note in brackets gives the kind of curve behind each potency; many fits are weak.

Turning to `CCCc1cc2c(=O)c(-c3nc4ccccc4s3)c(COCC(=O)O)oc2cc1O`, the cell number change amounted to 14.6%. Under setting [1], the AC50 was 0.231 µM [rising, full curve, poor fit].

Regarding `N#Cc1c(Nc2ccc(F)cc2)sc(C(=O)c2ccc(F)cc2)c1N`, the cell number change is -38.1%. Also, the half-maximal activity concentration (AC50) under setting [2] is 29.1 µM [falling, single point]. For the same compound, the AC50 under setting [1] was 29.1 µM [falling, single point].

Take `CN(Cc1ccccc1)S(=O)(=O)c1ccc(NS(=O)(=O)Cc2ccccc2)cc1`: the cell number change stood at 76.3%. Besides, the AC50 under setting [2] was 14.6 µM [rising, partial curve]. Further, the AC50 under setting [1] was 1.46 µM [rising, partial curve, poor fit].

In the case of `CCN(Cc1cc(=O)n2cc(Cl)c(C)c(Cl)c2n1)Cc1nc2ccccc2c(=O)[nH]1`, the AC50 under setting [2] was 4.11 µM [rising, partial curve, poor fit].

Regarding `Cc1ccc(OCC(=O)NC2CC(C)(C)NC(C)(C)C2)c(C)c1`, the cell number change is 16.3%.

`CCOC(=O)n1cc(C(=O)c2ccccc2O)cn1`: the cell number change amounted to 11.3%. Besides, the AC50 under setting [1] is 11.6 µM [falling, single point].

As to `CCOC(=O)C1CCCN(Cc2sccc2C)C1` (stereo unspecified), the cell number change was -25.2%. In addition, the AC50 under setting [2] is 0.184 µM [falling, full curve, poor fit]. Besides, under setting [1], the AC50 was 18.4 µM [falling, partial curve].

`COc1cccc(C(=O)NC(C)C(c2cccs2)N2CCN(C)CC2)c1` (stereo unspecified): the cell number change stood at 31.4%. Under setting [2], the AC50 is 0.517 µM [rising, full curve, poor fit].

In the case of `CC(C)OP(=O)(c1ccc(N(C)C)cc1)C(O)c1ccncc1` (stereo unspecified), the cell number change was determined as 43.2%. Under setting [1], the concentration at half-maximal activity (AC50) is 23.1 µM [rising, partial curve].

Take `COc1cccc(NC(=O)CCC2CCN(C(=O)C3CC=CCC3)CC2)c1` (stereo unspecified): the cell number change was -16.4%. Besides, under setting [1], the AC50 was 29.1 µM [falling, partial curve].

Regarding `CCOc1cc(C)c(C(C)C)cc1S(=O)(=O)NCc1ccccn1`, the cell number change amounted to 71.3%. Also, the AC50 under setting [2] is 29.1 µM [rising, single point]. In addition, the AC50 under setting [1] was 29.1 µM [rising, single point].

For `CC(=O)c1sc(-c2ccc(Cl)cc2)cc1N`, the cell number change was found to be 32.6%. Further, under setting [2], the AC50 was 29.1 µM [rising, single point]. The AC50 under setting [1] is 25.9 µM [rising, single point].

As for `O=C1CC(N2CCN(c3nc4ccccc4s3)CC2)C(=O)N1c1cccc(F)c1` (stereo unspecified), the cell number change is 27.3%. Further, the AC50 under setting [2] was 0.517 µM [rising, full curve, poor fit].

`CC(=O)c1ccc(C(=O)N2CCC(n3nccc3NC(=O)C3CC3)CC2)cc1`: the cell number change is 3.47%.

Turning to `COc1ccccc1NC(=O)C(=O)NCCC1CCCCN1S(=O)(=O)c1ccc(F)cc1` (stereo unspecified), the cell number change is -25.5%. Besides, the AC50 under setting [1] is 29.1 µM [falling, single point].

For the compound `COC(=O)c1ccccc1SCC(=O)Nc1ccc(N2CCOCC2)cc1`, the cell number change worked out at 8.71%. The AC50 under setting [1] was 5.8 µM [rising, single point].

For the compound `COCCN(C(=O)CSc1n[nH]c(-c2ccccc2)n1)c1c(N)n(CC(C)C)c(=O)[nH]c1=O`, the cell number change turned out to be 22.9%.

With `Cc1cccc(NC(=O)C(=O)NNC(=O)c2ccc(C(C)(C)C)cc2)c1`, the cell number change amounted to 113%. In addition, the AC50 under setting [2] was 20.6 µM [rising, partial curve]. In addition, the AC50 under setting [1] is 35.5 µM [falling, partial curve].

`Cc1ccc(S(=O)(=O)N2CCN(c3ccccc3)CC2)cc1`: the cell number change was -11.7%. Further, the AC50 under setting [1] is 1.03 µM [falling, full curve, poor fit].

Take `CC(Sc1nnc(C2CC2)n1C)C(=O)Nc1ccc(N2CCOCC2)cc1` (stereo unspecified): the AC50 under setting [2] was 0.146 µM [falling, full curve, poor fit].

In the case of `Cn1c(=O)c(C=Nc2ccccc2)c(O)c2ccccc21`, the cell number change was -64.2%. In addition, the AC50 under setting [2] was 23.1 µM [falling, single point]. The half-maximal activity concentration (AC50) under setting [1] is 23.1 µM [falling, partial curve].

With `CCC(C(=O)NCCc1c[nH]c2ccc(C)cc12)c1ccccc1` (stereo unspecified), the cell number change is 88%. The half-maximal activity concentration (AC50) under setting [2] was 29.1 µM [rising, single point].

For `Cc1cc(C)cc(NC(=O)c2cccc(N3C(=O)C4C5C=CC(C5)C4C3=O)c2)c1` (stereo unspecified), the cell number change is -52.2%. The AC50 under setting [2] was 9.2 µM [falling, partial curve]. In addition, the AC50 under setting [1] is 9.2 µM [falling, partial curve].

In the case of `Cn1cccc1CC(=O)N/N=C/c1cccc([N+](=O)[O-])c1`, the cell number change was found to be 71.3%. Also, the AC50 under setting [2] was 8.2 µM [rising, partial curve].

Consider `CCN(CC)S(=O)(=O)c1ccc2c(c1)nc(SCc1nc3ccsc3c(=O)[nH]1)n2CC`, for which the cell number change is 11.5%. Also, the AC50 under setting [2] is 3.26 µM [rising, partial curve].

Consider `Cc1nnc(NC(=O)CSc2ccc([N+](=O)[O-])cn2)s1`, for which the cell number change turned out to be 27.5%.

In the case of `COc1ccc(CNC(=O)COc2ccc(F)cc2)cc1`, the cell number change was -7.54%. Also, the AC50 under setting [1] was 0.58 µM [rising, single point].

As for `CCn1cc(C(=O)N2CCN(c3cccc(C)c3C)CC2)c(=O)c2ccc(C)nc21`, the cell number change was 10.3%. Moreover, the AC50 under setting [1] was 32.6 µM [rising, partial curve, poor fit].

With `COC(=O)c1[nH]c2cc(C)ccc2c1NC(=O)CN1CCN(C(=O)c2ccco2)CC1`, the cell number change is -0.0052%. The AC50 under setting [1] was 1.84 µM [rising, partial curve].

Regarding `COc1ccc(CCC(=O)OCC(=O)Nc2ccc(OC)c(OC)c2)cc1OC`, the cell number change is -6.67%. The AC50 under setting [1] is 6.51 µM [falling, single point].

Regarding `Oc1cccc(/C=N/Nc2cc(N3CCOCC3)nc(N3CCOCC3)n2)c1`, the cell number change was -17.5%. Besides, under setting [1], the AC50 is 7.31 µM [falling, partial curve].

As for `CC(OC(=O)C1CCC1)C(=O)Nc1cc(Cl)cc(Cl)c1` (stereo unspecified), the cell number change is -54%. For the same compound, the AC50 under setting [2] was 18.4 µM [falling, single point]. The concentration at half-maximal activity (AC50) under setting [1] is 16.4 µM [falling, single point].

For the compound `CCOC(=O)C1CCN(c2cc3c(cc2NC(=O)c2ccccc2OCC)n(C)c(=O)n3C)CC1`, the cell number change is -1.81%. Also, under setting [2], the AC50 was 0.366 µM [falling, partial curve]. In addition, under setting [1], the AC50 is 2.31 µM [falling, partial curve].

Regarding `CCn1c(SCC(=O)c2cc(C)n(-c3ccc(C(=O)OC)cc3)c2C)nnc1-c1cccnc1`, the cell number change is -23.3%. In addition, under setting [1], the AC50 is 23.1 µM [falling, single point].

Take `O=C(Nc1ccc(Cl)cc1)C1CC=CCC1C(=O)OCC(F)(F)C(F)F` (stereo unspecified): the AC50 under setting [2] was 6.51 µM [falling, single point].

As for `CCCCn1c(SCC(=O)NC2CC2)nnc1-c1ccncc1`, the cell number change is -6.67%.

With `CCOC(=O)c1nnn(CC(=O)Nc2ccccc2OC)c1C(=O)OCC`, the cell number change is -10.6%.

On to `CCN(CC)CCNC(=O)C1c2ccccc2C(=O)N(C)C1c1cn(C)c2ccccc12` (stereo unspecified), for which the cell number change was found to be 6.25%. In addition, under setting [1], the AC50 is 16.4 µM [rising, single point].

As to `N#Cc1ccc(OCC(=O)N2CCN(S(=O)(=O)c3ccc(Cl)s3)CC2)cc1`, the cell number change is -3.01%. For the same compound, the AC50 under setting [2] was 0.092 µM [falling, full curve, poor fit].

In the case of `O=C(c1cc(COc2ccc3ncccc3c2)on1)N1CCC[C@H]1CO`, the cell number change is -15.8%.

Turning to `COc1ccc(C(=O)/C=C/N(C)C)cc1`, the cell number change was -46.9%. In addition, the AC50 under setting [2] is 29.1 µM [falling, single point].

In the case of `CC1=NN(C(C)C)C(=O)C1`, the cell number change was -11.6%. The AC50 under setting [1] is 0.00461 µM [falling, full curve, poor fit].

As to `CCc1nnc(NC(=O)CCN2C(=O)/C(=C/c3cc(OC)c(OC)c(OC)c3)SC2=S)s1`, the cell number change is 38.7%. In addition, the AC50 under setting [2] is 32.6 µM [rising, single point].

On to `C=C(C)[C@@H](O)COc1c2ccoc2cc2oc(=O)ccc12`, for which the cell number change was -2.58%. Moreover, under setting [1], the concentration at half-maximal activity (AC50) was 23.1 µM [rising, single point].

As to `COc1ccnc(N=CNOCc2ccc(F)cc2Cl)c1C#N`, the cell number change turned out to be 39.2%. Also, under setting [2], the AC50 is 0.461 µM [rising, full curve]. The AC50 under setting [1] is 1.64 µM [rising, full curve].

`Cc1ccccc1-c1n[nH]c(=S)n1/N=C/C=C/c1ccco1`: the cell number change came to 22.3%. In addition, the AC50 under setting [2] is 0.259 µM [rising, full curve, poor fit]. Further, the AC50 under setting [1] is 0.231 µM [rising, full curve].

Turning to `COC(=O)CNC(=O)c1cn(CC(C)C)c(=O)c2cc(OC)c(OC)cc12`, the cell number change was -19.2%. Also, the AC50 under setting [1] was 29.1 µM [falling, single point].

Regarding `CC(C)CCOc1ccc(C2=NNC(=O)CC2)cc1`, the cell number change was -25.9%. In addition, under setting [1], the AC50 is 20.6 µM [falling, partial curve].

Consider `Cc1nc2ccccn2c1-c1csc(Nc2ccc(C(=O)O)cc2)n1`, for which the cell number change was -6.39%. Under setting [1], the AC50 is 0.651 µM [falling, full curve, poor fit].

Consider `Cc1cc(/C=C/C(=O)O)c(C)n1-c1ccc(Cl)cc1`, for which the cell number change is -26%. Also, the AC50 under setting [1] is 0.92 µM [falling, partial curve].

Regarding `COc1ccc(N(CC(=O)NCCSc2ccccn2)S(C)(=O)=O)cc1`, the AC50 under setting [1] is 1.03 µM [falling, full curve].

`Cc1ccnc(NC(=O)Cn2ccc([N+](=O)[O-])n2)c1`: the cell number change is -36.2%. In addition, the half-maximal activity concentration (AC50) under setting [2] is 0.291 µM [falling, full curve, poor fit]. Moreover, the AC50 under setting [1] is 5.17 µM [rising, partial curve].

For `CN(C)C(=O)CSC1c2ccccc2C(=O)N1c1ccccc1` (stereo unspecified), the concentration at half-maximal activity (AC50) under setting [1] is 29.1 µM [rising, single point].

In the case of `c1ccc(Cn2c(SCc3cn4cccnc4n3)nnc2-c2ccco2)cc1`, the cell number change was -1.04%.

For `COc1ccc2c(Cl)c(C(=O)OCC(=O)c3ccc4c(c3)NC(=O)CO4)sc2c1Cl`, the cell number change is 3.25%. Besides, under setting [1], the half-maximal activity concentration (AC50) is 0.291 µM [rising, full curve, poor fit].

As to `C/C(=C\c1ccccc1)CN(C)CCN(C)C`, the cell number change is 22.7%. In addition, under setting [1], the AC50 is 0.13 µM [falling, full curve, poor fit].

For `Cc1cc(C(=O)COC(=O)C(C)NC(N)=O)c(C)n1Cc1ccco1` (stereo unspecified), the cell number change was 45.4%. Further, the AC50 under setting [2] was 32.6 µM [rising, single point].

For the compound `CC(C)NC(=O)Cn1c(=O)n(CC(=O)N2CCCCC2)c(=O)c2sccc21`, under setting [1], the concentration at half-maximal activity (AC50) is 29.1 µM [falling, single point].

As for `CCOc1cc(S(=O)(=O)n2ccc(C)n2)ccc1Br`, the AC50 under setting [2] is 6.51 µM [rising, single point].
